{"sequences": {"note": "Sequences of proteins named here, by UniProt entry; tags and fusion partners are left off. Residues count along the entry.", "UniProt Q08345, residues 19-913": "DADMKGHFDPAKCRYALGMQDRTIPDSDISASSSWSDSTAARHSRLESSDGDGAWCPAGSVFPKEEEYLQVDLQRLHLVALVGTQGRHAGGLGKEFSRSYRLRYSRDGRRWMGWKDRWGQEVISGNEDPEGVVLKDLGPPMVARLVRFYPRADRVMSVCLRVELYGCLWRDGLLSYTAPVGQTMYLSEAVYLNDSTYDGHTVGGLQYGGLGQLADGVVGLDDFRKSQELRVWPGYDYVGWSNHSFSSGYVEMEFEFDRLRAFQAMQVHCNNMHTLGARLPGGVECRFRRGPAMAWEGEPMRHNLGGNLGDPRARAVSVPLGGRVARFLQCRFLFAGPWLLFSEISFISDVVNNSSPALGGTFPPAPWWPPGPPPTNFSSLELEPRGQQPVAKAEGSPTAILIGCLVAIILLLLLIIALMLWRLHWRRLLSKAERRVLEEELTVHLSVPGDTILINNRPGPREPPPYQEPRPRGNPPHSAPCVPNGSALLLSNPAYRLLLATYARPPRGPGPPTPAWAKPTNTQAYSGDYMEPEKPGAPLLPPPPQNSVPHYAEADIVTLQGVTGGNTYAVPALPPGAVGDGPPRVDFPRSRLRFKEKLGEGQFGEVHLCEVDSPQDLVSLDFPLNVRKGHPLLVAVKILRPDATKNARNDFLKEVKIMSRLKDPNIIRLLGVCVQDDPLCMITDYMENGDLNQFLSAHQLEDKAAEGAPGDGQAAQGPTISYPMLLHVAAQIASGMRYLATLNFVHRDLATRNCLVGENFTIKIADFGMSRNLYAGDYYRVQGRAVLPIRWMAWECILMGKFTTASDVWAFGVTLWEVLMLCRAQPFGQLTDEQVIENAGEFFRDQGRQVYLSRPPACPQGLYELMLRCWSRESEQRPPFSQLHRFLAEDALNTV"}, "source": "patent CN116023497A", "target": "DDR1 on HT-29 cells (human) (UniProt Q08345)", "assay": "confocal immunofluorescence, HT-29 cells, 4℃ 40 min", "note": "These are yes or no findings as the source states them, for the method shown. Some entries that bind do so weakly or less than the wild type."}
{"binder": "Tytug抗体 (antibody, IgG1, V domains shown) VH: QVQLQQPGAELVRPGSSVRLSCKASGYSFTSYWMNWVKQRPGQGLEWIGMIHPSDSKTRLDQKFKDKATLTVDKSSSTAYMQLSSPTSEDSAVYYCAREGTYYYAMDFWGQGTSVTVSS VL: DVLMTQTPLSLPVSLGDQASISCRSSQTIVHSNGNTYLEWYLQKPGQSPKLLIYKVSNRFSGVPDRFSGSGSGTDFTLKISRVEAEDLGVYYCFQGSHDPYTFGGGTKLEIK", "values": [{"measurement": "binding", "result": "binds"}]}
